# Results of single-concentration screens

Sequences of proteins named here, by UniProt entry; tags and fusion partners are left off.
UniProt P9WPC5, whole entry: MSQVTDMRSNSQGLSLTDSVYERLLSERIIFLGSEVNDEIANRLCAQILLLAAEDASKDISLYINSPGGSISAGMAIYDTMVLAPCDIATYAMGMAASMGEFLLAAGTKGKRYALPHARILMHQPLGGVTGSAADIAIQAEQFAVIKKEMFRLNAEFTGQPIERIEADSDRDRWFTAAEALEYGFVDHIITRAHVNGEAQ
UniProt P9WPC3, whole entry partner: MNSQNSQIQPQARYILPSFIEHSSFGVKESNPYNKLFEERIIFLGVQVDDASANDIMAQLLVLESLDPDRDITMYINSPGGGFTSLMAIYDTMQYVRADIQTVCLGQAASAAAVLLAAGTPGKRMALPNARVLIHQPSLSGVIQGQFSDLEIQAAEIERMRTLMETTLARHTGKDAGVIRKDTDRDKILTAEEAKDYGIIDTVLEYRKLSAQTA
UniProt P9WNZ1, whole entry: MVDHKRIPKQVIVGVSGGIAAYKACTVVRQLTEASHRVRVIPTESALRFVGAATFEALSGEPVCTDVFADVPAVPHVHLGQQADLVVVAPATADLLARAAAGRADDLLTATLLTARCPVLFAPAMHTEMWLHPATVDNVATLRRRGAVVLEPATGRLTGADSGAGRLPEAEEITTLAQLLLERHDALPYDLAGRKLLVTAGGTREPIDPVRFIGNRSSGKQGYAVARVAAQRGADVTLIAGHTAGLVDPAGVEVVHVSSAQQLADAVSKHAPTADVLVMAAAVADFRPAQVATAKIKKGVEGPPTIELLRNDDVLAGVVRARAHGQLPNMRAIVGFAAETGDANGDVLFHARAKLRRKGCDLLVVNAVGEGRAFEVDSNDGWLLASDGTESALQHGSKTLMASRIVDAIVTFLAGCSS

The values are deposited in ChEMBL (CHEMBL3988442, “University of Dundee, Small-Polar-MMV Screening Library” (2021)).

A: 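Protease assay of ClpP1P2, read by the AMC dye that it sets free. Target: ClpP1P2, Mycobacterium tuberculosis (UniProt P9WPC5 and UniProt P9WPC3). Compounds at 50 µM. Direction is inferred from only a few compounds that gave an IC50; most scored high, so higher reads as stronger inhibition. Most other retested compounds had strongly negative values. Of about 69,000 compounds tested this way, about 10 (0.015%) reached 50% or more in at least one test.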
B: 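Enzyme assay of CoaBC with a phosphate dye (Biomol Green) read at 650 nm. Target: Coenzyme A biosynthesis protein CoaBC, Mycobacterium tuberculosis (UniProt P9WNZ1). Compounds at 30 µM. Higher reads as stronger inhibition, judged from the few compounds that gave an IC50. Most strong results did not repeat in a second test. About 67,000 compounds were tested under these conditions; 0.06% (about 40) showed 50% or more at least once.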
C: 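Assay of Toxoplasma gondii numbers, read through their beta-galactosidase reporter with a colour substrate. Compounds at 10 µM. The record gives no direction; the compounds picked for IC50 retests had high values, so higher reads as fewer parasites. About 67,000 compounds were tested under these conditions; 0.38% (about 260) showed 50% or more at least once.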

The filed quantity is “Percent Effect” (%). The controls that fix the scale are not given in the record; negative values are as filed. This is an unselected part of the compounds tested.

* Cc1ccc(-c2n[nH]cc2CNCC2CCc3nnc(C)n3C2)cc1 (stereo not given) : A: -7.039%; B: -1.071%; C: -3.59%
* CCOc1ccc(CC(=O)N2C[C@H](C3CC3)[C@@H](N)C2)cc1 : A: 0.08707%; B: 13.29%; C: 13.88%
* Cc1cn2c(n1)CCC(NC(=O)c1oc(Br)cc1C)C2 (stereo not given) : A: -28.42%; B: -2.089%; C: -8.591%
* Cc1ccc(CC(=O)N(CC2CN(C)CCO2)c2nccs2)cn1 (stereo not given) : A: -8.215%; B: 4.386%; C: 12.37%
* [H][C@]12CCC(=O)N(CC)[C@@]1(C)CCCCN2C(=O)CCn1nccc1C : C: -10.07%
* O=C(O)C(F)(F)F.O=C(c1ccco1)N1CCCC12CCN(c1ncccn1)CC2 : C: -8.543%
* Cc1ccc(-c2ccnc(NC(C)c3c(C)n[nH]c3C)n2)c(C)n1 (stereo not given) : A: 11.08%; B: -2.784%; C: -0.7653%
* [H][C@]12CC[C@]([H])(CN(Cc3cccnc3)C1)N(C(=O)CSCCC)C2 : C: 0.4035%
* O=C(Nc1nnc(C(F)F)s1)N[C@H](CCO)c1ccccc1 : A: -8.478%; B: 6.821%; C: 5.359%
* CCOc1cccc(C(=O)N(CCC#N)Cc2ccccn2)c1 : A: -1.024%; B: -0.4132%; C: 11.51%
* CC1Cc2ccccc2N1Cc1occc1C(=O)NCC(=O)N(C)C (stereo not given) : A: -7.927%; B: 3.03%; C: 13.08%
* CC(C)NC(=O)[C@@H]1C[C@@H](N)CN1C(=O)CCSCc1ccc(F)cc1 : A: -8.643%; B: -4.604%; C: 3.241%
* O=C(NCCC1CN(Cc2c[nH]cn2)CCO1)Nc1ccccc1 (stereo not given) : A: -4.564%; B: -2.941%; C: 0.7941%
* CCc1cc(=O)n(CC(=O)N2CCCC2)c(-c2ccc(F)cc2)n1 : A: -23.32%; B: 2.296%; C: -11.9%
* Cc1oc(NC(=O)C(C)N2CCN(CCO)CC2)c(C#N)c1C (stereo not given) : A: 2.39%; B: 9.244%; C: 0.7042%
* C[C@H]1CN(c2ccccn2)C[C@@]12CCN(Cc1cccnc1)C2=O.O=C(O)C(F)(F)F.O=C(O)C(F)(F)F : C: 9.816%
* COc1ccc2ncn(Cc3ncc[nH]3)c(=O)c2c1 : A: 5.774%; B: 3.388%; C: -9.522%
* CC(=O)Nc1nc(C(=O)N2CCCC2c2ccc(Br)cc2)cs1 (stereo not given) : A: -19.15%; B: 4.545%; C: -32.42%
* CC(NCCCn1ccnc1)c1ccc(N2CCOC2=O)cc1 (stereo not given) : A: 3.162%; C: -2.589%
* OCC1CCCN1c1cc(NCCNc2cccnn2)ncn1 (stereo not given) : A: -3.3%; B: 0.6329%; C: 15.05%
* CCCC(=O)N1CCC([C@@H]2C[C@H](C(F)(F)F)n3nc(C)cc3N2)CC1 : A: -0.5266%; B: -0.4866%; C: -11.37%
* COCCc1noc(CN2CCCC(Cn3nc(C)nc3C)C2)n1 (stereo not given) : A: 7.984%; B: 4.389%; C: 0.1723%

Some entries from above, unchanged:

* O=C(NCCC1CN(Cc2c[nH]cn2)CCO1)Nc1ccccc1 (stereo not given) | A: -4.564%; B: -2.941%; C: 0.7941%
* O=C(Nc1nnc(C(F)F)s1)N[C@H](CCO)c1ccccc1 | A: -8.478%; B: 6.821%; C: 5.359%